# Test results published in US20220298510A1, “COMPOUNDS AND METHODS FOR INHIBITING CANCERS VIA REST INHIBITION” (Icahn School of Medicine at Mount Sinai, priority 2019, published 2022).
# At least one structure is not confirmed: it was looked up by name or label, or the drawing left a doubt.
# Tests used:
# Format in all cases: cell-based, human
# [1] = test system: MYCN-amplified NB cell lines; test: Proliferation / Annexin V of MYCN-amplified NB cell lines; conditions: 2.5 or 5 μM, 12 days
# ATRX IFF NB cells [2] = test: Annexin V staining (apoptosis) of ATRX IFF NB cells; conditions: 12 days
# ATRX IFF NB tumorspheres = test: Multicellular tumorspheres, live cells by trypan blue; conditions: 5 μM, day 12
# SK-N-FI cells = test: RNA-seq expression profile of EZH2i-treated SK-N-FI cells; conditions: EPZ-6438 treatment, 4 and 7 days
# ATRX IFF NB cells [3] = test: RNA-seq expression profile of EZH2i-treated ATRX IFF NB cells; conditions: D7, 5 μM
# ATRX WT NB cells = test: Proliferation of ATRX WT NB cells; conditions: treated with EPZ-6438
# ATRX IFF NB cells [4] = test: Proliferation (Incucyte, percent confluence normalized to DMSO) of ATRX IFF NB cells; conditions: increasing dosage, 12 days
# Source text: GAPDH used as a loading control. […] Percent confluence normalized to DMSO for each condition and plotted at day 12. Values normalized mean n±SD (n=3). Statistical significance assessed using student's unpaired t-test with each cell line compared to DMSO (* indicates p<0.05). […] Percent AV positive cells plotted, values are mean n±SD (n=3). Statistical significance assessed using student's unpaired t-test with each cell line compared to DMSO (* indicates p<0.05). (d) Tumor volume measurements of CHLA-90 cells subcutaneously injected into immunocompromised mice. Mice were treated with vehicle or UNC1999 at 300 mg/kg of body weight for 25 days, values mean n±SEM (n=9). Statistical significance assessed using student's unpaired t-test compared to vehicle (* indicates p<0.001). […]
# Proliferation evaluated using the […] […] IC50 for each cell line calculated in Prism. […] Statistical significance assessed using student's unpaired t-test with each cell line compared to DMSO (* indicates p<0.05). […] Proliferation assessed in the same manner as (a). Statistical significance assessed using student's unpaired t-test with each cell line compared to DMSO (* indicates p<0.05). […] AV staining assessed in the same manner as (b). […] Proliferation assessed in the same manner as (a). […] AV staining assessed in the same manner as (b).
# GAPDH used as a loading control. […] Proliferation evaluated using the Incucyte™ Life-Cell Imaging System. […]
smiles,measurement,setting,value
"CCN(c1cc(-c2ccc(CN3CCOCC3)cc2)cc(C(=O)NCc2c(C)cc(C)[nH]c2=O)c1C)C1CCOCC1 [EPZ-6438, Tazemetostat]",sensitivity to EZH2i,[1],mild sensitivity
same,apoptosis over a time course,"ATRX IFF NB cells [2]; 5 μM, exclusively in ATRX IFF NB",increased apoptosis
same,apoptosis (Annexin V),ATRX IFF NB cells [2]; increasing dosage,increased apoptosis
same,percentage of live cells in tumorspheres,ATRX IFF NB tumorspheres,striking decrease
same,expression of neurogenesis genes,SK-N-FI cells,did not show changes
same,expression of cell cycle and mitotic genes,ATRX IFF NB cells [3],significantly downregulated
same,proliferation of ATRX WT NB cells,ATRX WT NB cells,proliferated normally (or faster)
same,proliferation,ATRX IFF NB cells [4],decreased proliferation
